For at least one entry, the source does not settle the construct or the ends of the probe. No signal at the amounts used counts as a negative.

Chains of the proteins cited; added tags and fusions are not shown. A line that says so, or that is headed by a name, gives the form on record, which may keep a tag or linker.
Immunoglobulin E (IgE) (Homo sapiens), one chain, as listed by the source: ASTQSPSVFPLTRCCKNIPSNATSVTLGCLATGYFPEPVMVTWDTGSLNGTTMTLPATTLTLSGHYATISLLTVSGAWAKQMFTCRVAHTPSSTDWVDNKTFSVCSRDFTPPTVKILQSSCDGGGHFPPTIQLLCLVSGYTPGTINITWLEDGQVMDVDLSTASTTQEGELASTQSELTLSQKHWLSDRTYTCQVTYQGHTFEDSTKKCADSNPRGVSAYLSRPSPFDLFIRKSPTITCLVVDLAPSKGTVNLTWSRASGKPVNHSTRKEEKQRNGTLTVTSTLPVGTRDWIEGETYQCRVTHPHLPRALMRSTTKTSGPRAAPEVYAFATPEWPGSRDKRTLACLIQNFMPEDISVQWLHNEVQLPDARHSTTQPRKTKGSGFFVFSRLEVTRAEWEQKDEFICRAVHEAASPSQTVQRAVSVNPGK

The data set relates to Immunoglobulin E (IgE) (Homo sapiens). Briefly: filter binding. The following applies: purified native protein.
The mark [1] stands for this setting: 2'-OMe C,U, deoxy A,G, no significant binding up to 300 nM IgE with tRNA, ssDNA.
The mark [2] stands for this setting: dRmY: 2'-deoxy A,G, 2'-OMe C,U, no significant binding, variant of ARC445.
Setting [3] is: no binding at 5 and 50 nM h-IgE, single-stranded DNA, variant of D17.4.

For “GGGAGAGGAGAGAACGUUCUACAGGAGUGGAGCUACAGAGAGGGUUAGGGGUCGCUGUCGAUCGAUCGAUCGAUG [dRmY clone SEQ 36]”, the binding result under setting [1] is “no binding”.
Consider AAGCCUGGGGACCCAUGGGGGGGCU [ARC670], for which the binding result under setting [2] was “no binding”.
In the case of “GGGAGAGGAGAGAACGUUCUACAGGGAGAGAGUGUUGAGUGAAGAGGAGGAGUCGCUGUCGAUCGAUCGAUCGAUG [dRmY clone SEQ 40]”, the binding result under setting [1] is on record as “no binding”.
As to AGCUGUGGAGUCGUGUGGGGCU [ARC669], the binding result under setting [2] is “no binding”.
With UUCUGGGGACCCAUGGGGGAA [ARC441], under “dRmY: 2'-deoxy A,G, 2'-OMe C,U, N.B., variant of ARC1991”, the binding result is reported as “no binding”.
For CGCCUGGGGACCCAGGGGGGGCU [ARC665], the binding result under setting [2] is reported as “no binding”.
For the sequence “GGGGCACGTTTACAGTCCCTCCTTATCGCCTCCC [DNA clone SEQ 137]”, the binding result under setting [3] is on record as “no binding”.
With GCCUGGGGAACCAUGGGGGGC [ARC447], the binding result (dRmY: 2'-deoxy A,G, 2'-OMe C,U, N.B., variant of ARC1994) is recorded as “no binding”.
For “GGGAGAGGAGAGAACGUUCUACGUAUUAGGGGGGAAGGGGAGGAAUAGAUCACGCUGUCGAUCGAUCGAUCGAUG [dRmY clone SEQ 39]”, the binding result under setting [1] is “no binding”.
On to “GGGAGAGGAGAGAACGUUCUACUUGGGGUGGAAGGAGUAAGGGAGGUGCUGAUCGCUGUCGAUCGAUCGAUCGAUG [dRmY clone SEQ 38]”, for which, under setting [1], the binding result is “no binding”.
In the case of AGCCUGGUGGCCCAUGGGGUGCU [ARC666], under setting [2], the binding result is “no binding”.
Turning to “GGGAGAGGAGAGAACGUUCUACGGGGUUACGUCGCACGAUACAUGCAUUCAUCGCUGUCGAUCGAUCGAUCGAUG [dRmY clone SEQ 48]”, the binding result under setting [1] is on record as “no binding”.
On the same count and under the same terms, the value for “GGGAGAGGAGAGAACGUUCUACGAGGUGAGGGUCUACAAUGGAGGGAUGGUCGCUGUCGAUCGAUCGAUCGAUG [dRmY clone SEQ 30]” was “no binding”; that for “GGGAGAGGAGAGAACGUUCUACGGAUGUUGGGAGUGAUAGAAGGAAGGGGAGCGCUGUCGAUCGAUCGAUCGAUG [dRmY clone SEQ 37]” was “no binding”.
Turning to AGCCUGGGGACCCAUGGGGGCU [ARC664], the binding result under setting [2] is “no binding”.
As for “GGGAGAGGAGAGAACGUUCUACGAUUAGCAGGGAGGGAGAGUGCGAAGAGGACGCUGUCGAUCGAUCGAUCGAUG [dRmY clone SEQ 28]”, the binding result under setting [1] is listed as “no binding”.
As to “GGGGCTACTTTATCCGTTCCTCCTAGTGGGTAGCCCCT [ARC1305]”, the binding result (2'-OMe at 1-5,33-37, 3' idT [2'-OMe: 1-5,33-37, 38 = 3' inverted dT], No Binding, DPBS Mg/Ca, BSA, single-stranded DNA, letters built from the parent sequence and the stated change) is given as “no binding”.
For “GGGAGAGGAGAGAACGUUCUACGGGAUGGGUAGUUGGAUGGAAAUGGGAACGCUGUCGAUCGAUCGAUCGAUG [dRmY clone SEQ 34]”, the binding result under setting [1] was “no binding”.
For the sequence AGCCUGGGGACCCAUGGGGGGUGGU [ARC667], under setting [2], the binding result is recorded as “no binding”.
On to “GGGAGAGGAGAGAACGUUCUACGAGGUGUAGGGAUAGAGGGGUGUAGGUAACGCUGUCGAUCGAUCGAUCGAUG [dRmY clone SEQ 35]”, for which the binding result under setting [1] was “no binding”.
For “GGGGTACATTTATCCGTCCCTCCTAGTGGCATGCCCC [DNA clone SEQ 125]”, the binding result under setting [3] is “no binding”.
Regarding “GGGAGAGGAGAGAACGUUCUACUAGCGAGGAGGGGUUUUCUAUUUUUGCGAUCGCUGUCGAUCGAUCGAUCGAUG [dRmY clone SEQ 49]”, under setting [1], the binding result is recorded as “no binding”.
On to “GGGAGAGGAGAGAACGUUCUACUGGGGGGCGUGUUCAUUAGCAGCGUCGUGUCGCUGUCGAUCGAUCGAUCGAUG [dRmY clone SEQ 32]”, for which, under setting [1], the binding result is recorded as “no binding”.
Regarding “GGGGCACGTTTATCCGTCCCTCCTAGTGGCGTGCCCC [D17.4]”, the binding result (h-IgE titration 30 pM-30 nM, single-stranded DNA) is “binds”.
For the sequence “GGGGCACGTTTACAGTCCCTCCTTATCGCCTCCC [DNA clone SEQ 138]”, under setting [3], the binding result is “no binding”.
Consider “GGGAGAGGAGAGAACGUUCUACGAGUGGAUAGGGAAGAAGGGGAGUAGUCACGCUGUCGAUCGAUCGAUCGAUG [dRmY clone SEQ 45]”, for which the binding result under setting [1] is on record as “no binding”.
Regarding AGUCUGGGGACAGAUGGAUGGCU [ARC668], the binding result under setting [2] was “no binding”.
For “GGGAAAAGCGAAUCAUACACAAGAGAGUGGAGGAGGUAUGUAUGGUUUGUGCGUCUGGUGCGGUGCUCCGCCAGAGACCAACCGAGAA [rRfY clone SEQ 22]”, the binding result (2'-F C and U, no significant binding) is given as “no binding”.

The values are drawn from patent publication US20090018093.
